This is one part of the list.
Key:
Test in all cases: log2 fold change, soluble protein after heating vs DMSO (PISA); higher = thermal stabilisation; K562 lysate, 10 uM; active = over 0.2 and 3.5 SD of the protein, either way, in both replicates (recomputed)
[1] = compound: C=CC(=O)N1CCC[C@@H](n2nc(-c3ccc(Oc4ccccc4)cc3)c3c(N)ncnc32)C1 [ibrutinib]
In short: (§1)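 K562 pellets were dounce-homogenised in PBS pH 7.4 with 1 mM MgCl2, and the crude extract at 1 mg/mL protein was treated with 10 μM compound for 30 min. Aliquots were heated for 3 min across 48°C-58°C, pooled, and brought to 0.5% NP-40 at 4°C; soluble protein was the supernatant after 21,000xg for 90 min. Soluble protein was quantified by TMTpro 16plex LC-MS/MS with channel sums equalised, and reported as log2 fold change in thermal stability against DMSO controls, with values from duplicates.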

Protein sequences, listed by entry. Tags and fused reporters are not part of them. Lines headed by an entry give the natural chain unless they say otherwise; changes in a name come on top.
UniProt Q9UBU8, whole entry, looked up: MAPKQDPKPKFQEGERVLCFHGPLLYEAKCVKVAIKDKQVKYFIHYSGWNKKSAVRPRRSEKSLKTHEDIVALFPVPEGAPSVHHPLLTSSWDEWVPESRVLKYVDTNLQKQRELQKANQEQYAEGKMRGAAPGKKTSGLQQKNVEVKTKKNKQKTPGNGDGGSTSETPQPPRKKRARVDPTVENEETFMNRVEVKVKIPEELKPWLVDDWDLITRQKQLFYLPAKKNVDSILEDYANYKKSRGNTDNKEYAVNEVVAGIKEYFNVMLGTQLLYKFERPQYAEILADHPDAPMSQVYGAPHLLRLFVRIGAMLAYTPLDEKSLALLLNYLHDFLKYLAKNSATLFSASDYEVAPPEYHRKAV
UniProt Q03111: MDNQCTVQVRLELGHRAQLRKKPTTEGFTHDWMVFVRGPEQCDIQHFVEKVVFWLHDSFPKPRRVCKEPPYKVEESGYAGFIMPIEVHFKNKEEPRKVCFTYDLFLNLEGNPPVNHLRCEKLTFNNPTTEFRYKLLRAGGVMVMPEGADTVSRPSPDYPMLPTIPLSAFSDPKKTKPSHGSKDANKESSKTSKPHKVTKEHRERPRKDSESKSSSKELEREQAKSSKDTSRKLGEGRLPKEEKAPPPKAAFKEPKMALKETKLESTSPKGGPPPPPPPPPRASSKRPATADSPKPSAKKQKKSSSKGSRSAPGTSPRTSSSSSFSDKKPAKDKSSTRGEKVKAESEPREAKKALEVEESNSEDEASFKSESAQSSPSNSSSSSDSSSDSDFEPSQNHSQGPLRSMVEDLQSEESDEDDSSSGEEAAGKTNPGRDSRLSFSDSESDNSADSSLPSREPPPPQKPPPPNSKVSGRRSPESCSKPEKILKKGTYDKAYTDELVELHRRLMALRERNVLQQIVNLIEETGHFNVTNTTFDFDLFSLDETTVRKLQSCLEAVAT
UniProt Q5JRA6: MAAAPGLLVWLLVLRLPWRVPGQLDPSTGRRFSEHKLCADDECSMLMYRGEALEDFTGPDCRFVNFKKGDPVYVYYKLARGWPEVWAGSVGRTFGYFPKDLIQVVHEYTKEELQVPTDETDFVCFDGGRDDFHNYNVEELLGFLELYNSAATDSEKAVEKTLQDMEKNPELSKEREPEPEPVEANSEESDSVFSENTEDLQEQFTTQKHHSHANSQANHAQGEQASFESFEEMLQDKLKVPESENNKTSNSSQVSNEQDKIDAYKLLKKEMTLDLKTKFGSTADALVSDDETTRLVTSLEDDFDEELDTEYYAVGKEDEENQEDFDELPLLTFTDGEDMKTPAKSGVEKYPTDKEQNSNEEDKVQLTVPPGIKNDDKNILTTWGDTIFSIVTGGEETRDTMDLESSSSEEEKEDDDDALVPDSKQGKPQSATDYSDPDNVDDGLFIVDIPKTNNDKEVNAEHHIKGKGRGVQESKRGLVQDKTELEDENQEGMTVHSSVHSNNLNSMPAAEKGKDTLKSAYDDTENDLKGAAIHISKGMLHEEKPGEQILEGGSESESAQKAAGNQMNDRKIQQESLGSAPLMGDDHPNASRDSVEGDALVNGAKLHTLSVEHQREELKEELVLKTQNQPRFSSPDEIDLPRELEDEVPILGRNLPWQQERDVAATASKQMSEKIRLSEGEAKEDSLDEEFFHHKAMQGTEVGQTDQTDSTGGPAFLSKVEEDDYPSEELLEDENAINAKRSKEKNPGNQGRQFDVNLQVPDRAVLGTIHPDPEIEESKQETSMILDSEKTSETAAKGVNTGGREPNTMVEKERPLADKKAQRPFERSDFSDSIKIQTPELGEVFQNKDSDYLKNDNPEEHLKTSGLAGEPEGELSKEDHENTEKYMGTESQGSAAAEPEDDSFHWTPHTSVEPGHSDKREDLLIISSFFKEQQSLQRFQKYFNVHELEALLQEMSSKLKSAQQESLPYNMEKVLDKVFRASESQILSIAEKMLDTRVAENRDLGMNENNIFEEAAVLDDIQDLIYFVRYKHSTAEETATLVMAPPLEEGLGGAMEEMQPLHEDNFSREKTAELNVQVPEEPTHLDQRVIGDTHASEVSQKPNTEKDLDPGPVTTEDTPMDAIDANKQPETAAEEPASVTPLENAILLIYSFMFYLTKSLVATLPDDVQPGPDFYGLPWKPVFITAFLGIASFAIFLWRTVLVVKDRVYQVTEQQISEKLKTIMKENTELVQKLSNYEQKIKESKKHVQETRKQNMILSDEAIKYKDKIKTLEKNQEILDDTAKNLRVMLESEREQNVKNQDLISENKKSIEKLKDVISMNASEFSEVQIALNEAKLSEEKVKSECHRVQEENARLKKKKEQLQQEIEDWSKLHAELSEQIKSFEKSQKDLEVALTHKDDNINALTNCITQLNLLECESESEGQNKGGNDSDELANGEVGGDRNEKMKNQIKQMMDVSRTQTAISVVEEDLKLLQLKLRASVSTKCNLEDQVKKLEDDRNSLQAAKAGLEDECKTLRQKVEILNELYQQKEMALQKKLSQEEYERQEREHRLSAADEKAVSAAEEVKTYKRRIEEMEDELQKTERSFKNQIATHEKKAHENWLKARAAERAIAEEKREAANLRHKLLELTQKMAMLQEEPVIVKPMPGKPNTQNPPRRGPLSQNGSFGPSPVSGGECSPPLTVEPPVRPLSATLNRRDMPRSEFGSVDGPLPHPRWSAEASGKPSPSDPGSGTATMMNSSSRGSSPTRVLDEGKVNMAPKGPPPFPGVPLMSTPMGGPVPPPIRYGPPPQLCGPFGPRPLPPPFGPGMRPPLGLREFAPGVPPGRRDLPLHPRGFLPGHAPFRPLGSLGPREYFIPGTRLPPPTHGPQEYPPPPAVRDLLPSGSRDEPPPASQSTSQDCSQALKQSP
UniProt Q99797: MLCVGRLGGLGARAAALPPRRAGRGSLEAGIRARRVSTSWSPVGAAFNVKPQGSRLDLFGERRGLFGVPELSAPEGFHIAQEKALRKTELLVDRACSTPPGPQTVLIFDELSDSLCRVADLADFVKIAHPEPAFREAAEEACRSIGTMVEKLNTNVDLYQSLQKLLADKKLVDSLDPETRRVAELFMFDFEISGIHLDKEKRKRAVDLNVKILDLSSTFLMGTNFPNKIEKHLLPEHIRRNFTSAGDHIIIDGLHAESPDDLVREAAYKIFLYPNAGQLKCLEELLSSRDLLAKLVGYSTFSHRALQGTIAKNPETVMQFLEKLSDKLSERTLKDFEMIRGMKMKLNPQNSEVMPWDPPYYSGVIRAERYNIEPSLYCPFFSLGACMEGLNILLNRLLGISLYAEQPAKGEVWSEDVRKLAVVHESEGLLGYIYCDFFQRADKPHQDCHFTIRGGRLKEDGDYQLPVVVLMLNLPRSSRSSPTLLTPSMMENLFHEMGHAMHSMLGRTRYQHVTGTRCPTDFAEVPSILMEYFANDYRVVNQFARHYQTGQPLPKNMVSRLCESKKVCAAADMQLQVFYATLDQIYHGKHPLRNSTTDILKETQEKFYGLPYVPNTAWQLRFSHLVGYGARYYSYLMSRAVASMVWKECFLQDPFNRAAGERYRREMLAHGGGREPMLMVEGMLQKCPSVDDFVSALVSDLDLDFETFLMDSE
UniProt Q6WCQ1: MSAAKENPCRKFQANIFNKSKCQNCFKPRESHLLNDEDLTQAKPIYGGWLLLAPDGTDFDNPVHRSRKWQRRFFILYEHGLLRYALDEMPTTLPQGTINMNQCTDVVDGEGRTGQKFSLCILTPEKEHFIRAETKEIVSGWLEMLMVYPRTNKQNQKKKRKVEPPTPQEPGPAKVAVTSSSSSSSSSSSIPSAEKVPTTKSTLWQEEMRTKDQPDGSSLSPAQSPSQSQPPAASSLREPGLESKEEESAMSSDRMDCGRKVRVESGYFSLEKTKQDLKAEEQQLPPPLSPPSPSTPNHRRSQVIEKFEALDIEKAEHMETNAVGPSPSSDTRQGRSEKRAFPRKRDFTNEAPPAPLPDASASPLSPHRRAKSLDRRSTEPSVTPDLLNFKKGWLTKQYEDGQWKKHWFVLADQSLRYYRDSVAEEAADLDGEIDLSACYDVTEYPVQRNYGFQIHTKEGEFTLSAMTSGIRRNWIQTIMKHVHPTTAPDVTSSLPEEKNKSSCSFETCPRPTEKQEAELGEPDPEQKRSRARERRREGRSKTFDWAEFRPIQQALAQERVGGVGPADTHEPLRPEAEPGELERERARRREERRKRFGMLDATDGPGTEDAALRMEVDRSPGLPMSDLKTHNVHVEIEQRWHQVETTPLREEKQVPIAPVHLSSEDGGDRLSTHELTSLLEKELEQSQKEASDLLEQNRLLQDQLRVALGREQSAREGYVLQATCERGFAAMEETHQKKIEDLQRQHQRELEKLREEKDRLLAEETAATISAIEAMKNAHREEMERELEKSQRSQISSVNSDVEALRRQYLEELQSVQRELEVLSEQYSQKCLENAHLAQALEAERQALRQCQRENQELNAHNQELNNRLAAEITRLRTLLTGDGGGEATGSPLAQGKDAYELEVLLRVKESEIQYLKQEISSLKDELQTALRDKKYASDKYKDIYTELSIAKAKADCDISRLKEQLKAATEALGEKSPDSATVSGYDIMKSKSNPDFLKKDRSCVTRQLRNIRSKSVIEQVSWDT
UniProt Q96PC5: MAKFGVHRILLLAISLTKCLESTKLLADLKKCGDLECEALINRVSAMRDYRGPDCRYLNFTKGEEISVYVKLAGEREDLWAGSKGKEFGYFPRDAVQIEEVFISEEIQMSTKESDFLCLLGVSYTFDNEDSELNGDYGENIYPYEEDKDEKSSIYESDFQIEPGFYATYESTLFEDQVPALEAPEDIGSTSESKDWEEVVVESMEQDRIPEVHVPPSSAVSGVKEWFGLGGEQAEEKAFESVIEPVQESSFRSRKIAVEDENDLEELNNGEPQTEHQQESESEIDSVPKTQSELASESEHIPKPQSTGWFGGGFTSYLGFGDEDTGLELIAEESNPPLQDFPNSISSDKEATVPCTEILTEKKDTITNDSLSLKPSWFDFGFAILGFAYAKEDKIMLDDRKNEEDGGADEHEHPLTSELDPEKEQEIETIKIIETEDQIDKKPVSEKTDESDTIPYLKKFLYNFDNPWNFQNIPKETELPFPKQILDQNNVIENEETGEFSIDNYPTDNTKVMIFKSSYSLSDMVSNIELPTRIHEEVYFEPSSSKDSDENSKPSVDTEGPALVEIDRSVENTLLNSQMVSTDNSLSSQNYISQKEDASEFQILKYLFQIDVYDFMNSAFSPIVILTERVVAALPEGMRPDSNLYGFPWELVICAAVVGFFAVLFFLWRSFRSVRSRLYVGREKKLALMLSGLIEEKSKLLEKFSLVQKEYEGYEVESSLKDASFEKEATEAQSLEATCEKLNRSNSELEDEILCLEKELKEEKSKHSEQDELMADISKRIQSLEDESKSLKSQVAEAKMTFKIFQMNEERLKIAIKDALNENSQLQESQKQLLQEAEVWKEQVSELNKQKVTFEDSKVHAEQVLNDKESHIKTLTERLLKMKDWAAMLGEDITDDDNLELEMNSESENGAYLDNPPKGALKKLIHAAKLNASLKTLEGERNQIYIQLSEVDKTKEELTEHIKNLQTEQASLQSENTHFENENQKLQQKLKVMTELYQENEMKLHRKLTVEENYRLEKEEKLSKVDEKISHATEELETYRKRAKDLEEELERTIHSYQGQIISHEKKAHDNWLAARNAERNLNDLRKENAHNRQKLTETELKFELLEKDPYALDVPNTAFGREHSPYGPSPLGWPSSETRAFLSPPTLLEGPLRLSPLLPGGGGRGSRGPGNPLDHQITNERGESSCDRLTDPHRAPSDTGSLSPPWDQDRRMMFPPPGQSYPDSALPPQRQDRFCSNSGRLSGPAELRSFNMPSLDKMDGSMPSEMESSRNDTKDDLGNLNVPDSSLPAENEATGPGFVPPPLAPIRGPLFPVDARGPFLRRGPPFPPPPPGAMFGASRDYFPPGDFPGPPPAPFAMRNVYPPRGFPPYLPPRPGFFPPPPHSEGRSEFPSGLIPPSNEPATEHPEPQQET
UniProt Q9H8M7: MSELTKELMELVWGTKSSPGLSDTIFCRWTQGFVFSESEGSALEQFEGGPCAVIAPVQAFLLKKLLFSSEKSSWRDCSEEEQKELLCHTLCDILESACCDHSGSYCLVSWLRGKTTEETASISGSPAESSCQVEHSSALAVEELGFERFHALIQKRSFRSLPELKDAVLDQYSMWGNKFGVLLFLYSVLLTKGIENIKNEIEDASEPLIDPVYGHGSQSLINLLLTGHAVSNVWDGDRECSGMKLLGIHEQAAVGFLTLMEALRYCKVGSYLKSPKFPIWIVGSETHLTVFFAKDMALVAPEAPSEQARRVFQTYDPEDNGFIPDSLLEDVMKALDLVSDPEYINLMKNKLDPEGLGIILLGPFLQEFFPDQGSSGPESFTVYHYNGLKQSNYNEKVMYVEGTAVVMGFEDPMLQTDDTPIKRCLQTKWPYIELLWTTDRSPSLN

[2] = compound: CC(=O)c1cnc2ccc(-c3cc(Cl)c(O)c(Cl)c3)nc2c1N[C@H]1CC[C@H](CN(C)C)CC1
In short: as §1

[3] = compound: CC(C)(C)Cn1c(N)nc2ccc(-c3[nH]c(C(C)(C)C)nc3-c3ccc(F)cc3)nc21 [ralimetinib]
In short: as §1

[4] = compound: CC(C)(O)CC(=O)NCCn1ccc2ncnc(Nc3ccc(Oc4cccc(C(F)(F)F)c4)c(Cl)c3)c21
In short: as §1

[5] = compound: CC(C)C1=C2N=C(C=C(N2N=C1)NCC3=CC=CC=C3)NCCCCCCN
In short: as §1

[6] = compound: CC1=C(C(CC(=O)N1)C2=CC=C(C=C2)C(F)(F)F)C(=O)NC3=C(C=C4C(=C3)C=NN4)F
In short: as §1

[7] = compound: CC1=C(C2=C(C=C1)C(=O)C3=CC=CC=C3N2CCCN)C
In short: as §1

[8] = compound: CC1=C(C=C(C=C1)NC(=O)C2=CC(=CC=C2)C(C)(C)C#N)NC3=CC4=C(C=C3)N=CN(C4=O)C
In short: as §1

[9] = compound: CC1=C(C=C(C=C1)NC(=O)C2=CC(=CC=C2)N(C)C)NC(=O)C3=CC=C(C=C3)O
In short: as §1

[10] = compound: CC1=CC=C(C=C1)SC2=C3C=C(SC3=CN=C2)C(=O)N
In short: as §1

[11] = compound: CCCS(=O)(=O)Nc1ccc(F)c(C(=O)c2c[nH]c3ncc(-c4ccc(Cl)cc4)cc23)c1F [vemurafenib]
In short: as §1

[12] = compound: CCCS(=O)(=O)Nc1ccc(F)c(C(=O)c2c[nH]c3ncc(Cl)cc23)c1F
In short: as §1

[13] = compound: CCN(CCCOc1ccc2c(Nc3cc(CC(=O)Nc4cccc(F)c4)[nH]n3)ncnc2c1)CCOP(=O)(O)O [barasertib]
In short: as §1

[14] = compound: CC[C@@H]1C(=O)N(C)c2cnc(Nc3ccc(C(=O)NC4CCN(C)CC4)cc3OC)nc2N1C1CCCC1
In short: as §1

[15] = compound: CC[C@@H]1C(=O)N(C)c2cnc(Nc3ccc(C(=O)N[C@H]4CC[C@H](N5CCN(CC6CC6)CC5)CC4)cc3OC)nc2N1C(C)C [volasertib]
In short: as §1

[16] = compound: CCn1c(C(=O)N(C2CC2)C2CC2)cc2c3c(ncn3C)c(Nc3cc(C)n(C)n3)nc21
In short: as §1

[17] = compound: CCn1cc(-c2ccnc3[nH]c(-c4cccc(CN(C)C)c4)cc23)c(-c2ccc(NC(=O)N(C)C)cc2)n1
In short: as §1

[18] = compound: CN1CCC(CNc2ccc3ncc(-c4cccc(OC(F)(F)F)c4)n3n2)CC1
In short: as §1

[19] = compound: CN1CCN(CCOc2cc(OC3CCOCC3)c3c(Nc4c(Cl)ccc5c4OCO5)ncnc3c2)CC1 [saracatinib]
In short: as §1

[20] = compound: CN1CCN(c2nc(C3=C(c4c[nH]c5ccccc45)C(=O)NC3=O)c3ccccc3n2)CC1 [sotrastaurin]
In short: as §1

Row | Target | log2 fold change [1] | log2 fold change [2] | log2 fold change [3] | log2 fold change [4] | log2 fold change [5] | log2 fold change [6] | log2 fold change [7] | log2 fold change [8] | log2 fold change [9] | log2 fold change [10] | log2 fold change [11] | log2 fold change [12] | log2 fold change [13] | log2 fold change [14] | log2 fold change [15] | log2 fold change [16] | log2 fold change [17] | log2 fold change [18] | log2 fold change [19] | log2 fold change [20]
1 | MOCOS (UniProt Q96EN8) | inactive: 0.012 | inactive: 0.003 | inactive: 0.031 | inactive: -0.025 | inactive: -0.01 | inactive: 0.014 | inactive: -0.023 | inactive: 0.013 | inactive: -0.017 | inactive: -0.019 | inactive: 0 | inactive: 0.012 | inactive: 0 | inactive: -0.031 | inactive: 0.043 | inactive: 0.006 | inactive: -0.039 | inactive: 0.03 | inactive: -0.001 | inactive: 0.018
2 | MORF4L1 isoform 2 (UniProt Q9UBU8) | inactive: -0.038 | inactive: -0.012 | inactive: 0.011 | inactive: -0.062 | inactive: 0.019 | inactive: -0.034 | inactive: -0.089 | inactive: 0.01 | inactive: 0.003 | inactive: 0.021 | inactive: 0.034 | inactive: -0.017 | inactive: 0.007 | inactive: 0.016 | inactive: 0 | inactive: -0.005 | inactive: -0.036 | inactive: 0.131 | inactive: 0.038 | inactive: 0.019
3 | MPG (UniProt P29372) | inactive: -0.016 | inactive: -0.029 | inactive: -0.012 | inactive: -0.044 | inactive: 0.05 | inactive: 0.019 | inactive: 0.002 | inactive: -0.009 | inactive: 0.011 | inactive: -0.029 | inactive: 0.014 | inactive: 0.009 | inactive: -0.004 | inactive: -0.016 | inactive: -0.052 | inactive: -0.01 | inactive: 0.01 | inactive: -0.096 | inactive: -0.002 | inactive: 0.013
4 | MICU2 (UniProt Q8IYU8) | inactive: 0.036 | inactive: -0.095 | inactive: -0.019 | inactive: -0.026 | inactive: -0.016 | inactive: -0.019 | inactive: -0.004 | inactive: 0.012 | inactive: -0.018 | inactive: 0.013 | inactive: -0.061 | inactive: 0.043 | inactive: 0.109 | inactive: -0.023 | inactive: 0 | inactive: -0.036 | inactive: 0.013 | inactive: -0.101 | inactive: 0.021 | inactive: 0.126
5 | MRPL11 (UniProt Q9Y3B7) | inactive: -0.04 | inactive: 0 | inactive: 0.051 | inactive: -0.014 | inactive: 0.055 | inactive: -0.018 | inactive: -0.029 | inactive: -0.002 | inactive: 0.012 | inactive: 0.007 | inactive: 0.038 | inactive: 0.012 | inactive: 0.075 | inactive: 0 | inactive: -0.024 | inactive: 0.036 | inactive: 0.01 | inactive: -0.06 | inactive: 0.012 | inactive: -0.015
6 | MLLT1 (UniProt Q03111) | inactive: 0.032 | inactive: -0.006 | inactive: 0.032 | inactive: -0.017 | inactive: -0.028 | inactive: -0.049 | inactive: -0.023 | inactive: 0.058 | inactive: -0.01 | inactive: -0.052 | inactive: -0.063 | inactive: 0.033 | inactive: -0.001 | inactive: -0.017 | inactive: 0.025 | inactive: -0.029 | inactive: -0.021 | inactive: -0.031 | inactive: 0.005 | inactive: -0.049
7 | MICAL3 (UniProt Q7RTP6) | inactive: 0.039 | inactive: 0.008 | inactive: -0.014 | inactive: -0.032 | inactive: 0.003 | inactive: 0 | inactive: -0.043 | inactive: 0 | inactive: 0.036 | inactive: -0.024 | inactive: 0.037 | inactive: 0.018 | inactive: 0.06 | inactive: 0.042 | inactive: -0.003 | inactive: -0.013 | inactive: -0.002 | inactive: 0.027 | inactive: -0.002 | inactive: 0.014
8 | MIA3 (UniProt Q5JRA6) | inactive: 0.009 | inactive: 0.024 | inactive: 0.002 | inactive: 0.008 | inactive: -0.011 | inactive: 0.018 | inactive: -0.015 | inactive: -0.033 | inactive: 0.016 | inactive: -0.007 | inactive: -0.012 | inactive: 0.009 | inactive: 0.031 | inactive: 0.04 | inactive: -0.022 | inactive: 0.036 | inactive: 0.043 | inactive: -0.001 | inactive: 0.006 | inactive: 0.016
9 | MIPEP (UniProt Q99797) | inactive: 0.041 | inactive: 0.054 | inactive: 0.027 | inactive: 0.07 | inactive: -0.02 | inactive: -0.001 | inactive: -0.003 | inactive: -0.067 | inactive: 0.044 | inactive: 0.003 | inactive: -0.026 | inactive: 0.004 | inactive: 0.006 | inactive: -0.053 | inactive: -0.029 | inactive: 0.029 | inactive: -0.05 | inactive: -0.015 | inactive: 0.001 | inactive: -0.042
10 | MPZL1 (UniProt O95297) | inactive: 0.01 | inactive: -0.008 | inactive: -0.01 | inactive: 0.022 | inactive: -0.035 | inactive: -0.006 | inactive: 0.003 | inactive: 0.02 | inactive: -0.035 | inactive: -0.036 | inactive: 0.037 | inactive: 0.001 | inactive: 0.024 | inactive: 0.057 | inactive: 0.035 | inactive: 0.027 | active: 0.262 | inactive: -0.052 | inactive: 0.045 | inactive: -0.022
11 | MGAT4B isoform 3 (UniProt Q9UQ53) | inactive: 0.015 | inactive: -0.027 | inactive: 0.008 | inactive: -0.011 | inactive: 0.009 | inactive: -0.099 | inactive: -0.034 | inactive: -0.034 | inactive: 0.026 | inactive: -0.023 | inactive: 0.444 | inactive: 0.058 | inactive: 0.024 | inactive: 0.016 | inactive: 0.018 | inactive: 0.087 | inactive: -0.114 | inactive: -0.138 | inactive: 0.002 | inactive: -0.009
12 | MLXIP (UniProt Q9HAP2) | inactive: 0.045 | inactive: 0.007 | inactive: -0.006 | inactive: -0.035 | inactive: 0.028 | inactive: -0.033 | inactive: -0.015 | inactive: -0.015 | inactive: -0.011 | inactive: -0.015 | inactive: 0.004 | inactive: 0.013 | inactive: 0.019 | inactive: -0.032 | inactive: -0.041 | inactive: 0.028 | inactive: -0.045 | inactive: 0.093 | inactive: 0 | inactive: 0.008
13 | MPRIP isoform 2 (UniProt Q6WCQ1) | inactive: 0.026 | inactive: -0.086 | inactive: 0.027 | inactive: -0.018 | inactive: -0.005 | inactive: -0.013 | inactive: 0.001 | inactive: -0.036 | inactive: 0.072 | inactive: 0.029 | inactive: -0.005 | inactive: 0.128 | inactive: -0.001 | inactive: 0.046 | inactive: 0.074 | inactive: -0.019 | inactive: 0.101 | inactive: -0.015 | inactive: 0.108 | inactive: -0.015
14 | MMUT (UniProt P22033) | inactive: 0.036 | inactive: 0.02 | inactive: 0 | inactive: 0.015 | inactive: -0.008 | inactive: 0.007 | inactive: 0.021 | inactive: -0.025 | inactive: -0.003 | inactive: 0.014 | inactive: -0.006 | inactive: 0.01 | inactive: 0.008 | inactive: 0.002 | inactive: -0.005 | inactive: 0.025 | inactive: -0.043 | inactive: -0.021 | inactive: 0.02 | inactive: -0.018
15 | MIA2 (UniProt Q96PC5) | inactive: 0.011 | inactive: 0.015 | inactive: 0.009 | inactive: 0.045 | inactive: 0.091 | inactive: 0.086 | inactive: -0.009 | inactive: 0.012 | inactive: 0.003 | inactive: 0.017 | inactive: 0.029 | inactive: -0.013 | inactive: 0.029 | inactive: 0.017 | inactive: -0.02 | inactive: -0.036 | inactive: 0.17 | inactive: -0.108 | inactive: 0.036 | inactive: 0.019
16 | MINDY3 (UniProt Q9H8M7) | inactive: 0.039 | inactive: 0.01 | inactive: -0.012 | inactive: -0.001 | inactive: -0.013 | inactive: 0.017 | inactive: 0.003 | inactive: -0.034 | inactive: 0.006 | inactive: 0.011 | inactive: -0.014 | inactive: 0.009 | inactive: 0.016 | inactive: -0.05 | inactive: -0.002 | inactive: -0.004 | inactive: -0.032 | inactive: 0.083 | inactive: 0.031 | inactive: 0.064

Reformatted: results already given

| Row | Target | log2 fold change [1] | log2 fold change [2] | log2 fold change [3] | log2 fold change [4] | log2 fold change [5] | log2 fold change [6] | log2 fold change [7] | log2 fold change [8] | log2 fold change [9] | log2 fold change [10] | log2 fold change [11] | log2 fold change [12] | log2 fold change [13] | log2 fold change [14] | log2 fold change [15] | log2 fold change [16] | log2 fold change [17] | log2 fold change [18] | log2 fold change [19] | log2 fold change [20] |
| --- | --- | --- | --- | --- | --- | --- | --- | --- | --- | --- | --- | --- | --- | --- | --- | --- | --- | --- | --- | --- | --- |
| 11 | MGAT4B isoform 3 (UniProt Q9UQ53) | inactive: 0.015 | inactive: -0.027 | inactive: 0.008 | inactive: -0.011 | inactive: 0.009 | inactive: -0.099 | inactive: -0.034 | inactive: -0.034 | inactive: 0.026 | inactive: -0.023 | inactive: 0.444 | inactive: 0.058 | inactive: 0.024 | inactive: 0.016 | inactive: 0.018 | inactive: 0.087 | inactive: -0.114 | inactive: -0.138 | inactive: 0.002 | inactive: -0.009 |
| 12 | MLXIP (UniProt Q9HAP2) | inactive: 0.045 | inactive: 0.007 | inactive: -0.006 | inactive: -0.035 | inactive: 0.028 | inactive: -0.033 | inactive: -0.015 | inactive: -0.015 | inactive: -0.011 | inactive: -0.015 | inactive: 0.004 | inactive: 0.013 | inactive: 0.019 | inactive: -0.032 | inactive: -0.041 | inactive: 0.028 | inactive: -0.045 | inactive: 0.093 | inactive: 0 | inactive: 0.008 |
